Data taken from article PMC11578309.
No constants are given. Whether binding was seen depends on the method and setting. For part of these data: In cells and extracts the contact can be indirect. Some results given as binding are weak or reduced against the parent protein; the word gives no strength. For part of these data: Tags and fused reporters may be left off the sequences shown.

Key:
[1] = target: T1, phosphomevalonate kinase (PMVK), endogenous (human (endogenous in Hep3B and MHCC97L)) (UniProt Q15126); experiment: co-IP; endogenous proteins in Hep3B and MHCC97L whole cell lysate; mouse anti-PMVK antibody for IP, mouse IgG as negative control; immunoblot
T1 sequence: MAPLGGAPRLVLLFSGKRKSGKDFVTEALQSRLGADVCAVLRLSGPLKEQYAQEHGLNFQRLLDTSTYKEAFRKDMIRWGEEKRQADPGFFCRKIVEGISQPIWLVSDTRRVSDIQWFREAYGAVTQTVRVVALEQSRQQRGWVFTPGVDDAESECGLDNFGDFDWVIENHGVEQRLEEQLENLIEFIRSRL

[2] = target: T2, GST-PMVK fusion protein (human) (UniProt Q15126); experiment: pull-down; GST-PMVK (or GST) bound to Sepharose beads, incubated with ACAT1 or GAD1 fusion proteins in 1 mL RIPA buffer at 4 °C for 4 h; immunoblot; both purified
T2 sequence: T1 sequence

B1: glutamate decarboxylase 1 (GAD1), endogenous (enzyme, UniProt Q99259 1-594)
chain: MASSTPSSSATSSNAGADPNTTNLRPTTYDTWCGVAHGCTRKLGLKICGFLQRTNSLEEKSRLVSAFKERQSSKNLLSCENSDRDARFRRTETDFSNLFARDLLPAKNGEEQTVQFLLEVVDILLNYVRKTFDRSTKVLDFHHPHQLLEGMEGFNLELSDHPESLEQILVDCRDTLKYGVRTGHPRFFNQLSTGLDIIGLAGEWLTSTANTNMFTYEIAPVFVLMEQITLKKMREIVGWSSKDGDGIFSPGGAISNMYSIMAARYKYFPEVKTKGMAAVPKLVLFTSEQSHYSIKKAGAALGFGTDNVILIKCNERGKIIPADFEAKILEAKQKGYVPFYVNATAGTTVYGAFDPIQEIADICEKYNLWLHVDAAWGGGLLMSRKHRHKLNGIERANSVTWNPHKMMGVLLQCSAILVKEKGILQGCNQMCAGYLFQPDKQYDVSYDTGDKAIQCGRHVDIFKFWLMWKAKGTVGFENQINKCLELAEYLYAKIKNREEFEMVFNGEPEHTNVCFWYIPQSLRGVPDSPQRREKLHKVAPKIKALMMESGTTMVGYQPQGDKANFFRMVISNPAATQSDIDFLIEEIERLGQDL
**Q.** B1 was tested. Which binding [1] did it give?
**A.** The binding was “binds”.

B2: acetyl-CoA acetyltransferase 1 (ACAT1), endogenous (enzyme, UniProt P24752 34-427)
chain: VSKPTLKEVVIVSATRTPIGSFLGSLSLLPATKLGSIAIQGAIEKAGIPKEEVKEAYMGNVLQGGEGQAPTRQAVLGAGLPISTPCTTINKVCASGMKAIMMASQSLMCGHQDVMVAGGMESMSNVPYVMNRGSTPYGGVKLEDLIVKDGLTDVYNKIHMGSCAENTAKKLNIARNEQDAYAINSYTRSKAAWEAGKFGNEVIPVTVTVKGQPDVVVKEDEEYKRVDFSKVPKLKTVFQKENGTVTAANASTLNDGAAALVLMTADAAKRLNVTPLARIVAFADAAVEPIDFPIAPVYAASMVLKDVGLKKEDIAMWEVNEAFSLVVLANIKMLEIDPQKVNINGGAVSLGHPIGMSGARIVGHLTHALKQGEYGLASICNGGGGASAMLIQKL
**Q.** With B2 as the binder, how does the binding [1] read?
**A.** The binding was “binds”.

B3: ACAT1 fusion protein (recombinant, for GST pull-down) (enzyme, UniProt P24752 34-427)
chain: B2 chain
**Q.** Which binding [2] does the source give for B3 here?
**A.** The binding was “binds”.
